These are yes or no findings as the source states them, for the method shown. In cells and extracts the contact can be indirect. A yes stands for co-enrichment or nearness to the bait. Other partners may have been found. For part of these data: A no says only that the protein was not detected with the bait. For part of these data: Sequences can lack the tags named with a protein.
T1: SNX5 on SNX5-coated vesicles immunoprecipitated from C2C12 myocytes (UniProt Q9D8U8)
T1 sequence: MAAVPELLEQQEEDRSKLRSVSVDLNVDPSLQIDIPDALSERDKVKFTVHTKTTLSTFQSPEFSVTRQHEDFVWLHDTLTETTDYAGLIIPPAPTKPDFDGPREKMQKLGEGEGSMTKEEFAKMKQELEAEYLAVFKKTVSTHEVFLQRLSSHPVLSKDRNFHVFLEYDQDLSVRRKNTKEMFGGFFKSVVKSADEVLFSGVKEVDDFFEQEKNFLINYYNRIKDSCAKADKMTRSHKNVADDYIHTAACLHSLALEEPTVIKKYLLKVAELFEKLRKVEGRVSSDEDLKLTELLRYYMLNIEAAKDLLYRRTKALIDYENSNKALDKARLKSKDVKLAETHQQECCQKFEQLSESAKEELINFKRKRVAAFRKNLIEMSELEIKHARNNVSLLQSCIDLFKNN

By UniProt entry, the sequences of proteins in these tests, tags left out.
UniProt Q9DBC7: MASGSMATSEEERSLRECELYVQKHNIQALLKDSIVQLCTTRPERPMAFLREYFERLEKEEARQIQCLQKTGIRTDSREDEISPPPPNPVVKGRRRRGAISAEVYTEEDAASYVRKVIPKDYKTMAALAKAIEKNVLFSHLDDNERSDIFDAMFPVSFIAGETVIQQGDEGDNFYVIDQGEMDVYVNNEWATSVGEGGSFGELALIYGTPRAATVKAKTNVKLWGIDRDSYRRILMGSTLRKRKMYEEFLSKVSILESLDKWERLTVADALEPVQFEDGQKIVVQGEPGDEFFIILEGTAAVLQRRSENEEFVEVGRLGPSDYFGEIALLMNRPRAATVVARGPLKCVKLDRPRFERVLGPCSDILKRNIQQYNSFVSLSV
UniProt P12849: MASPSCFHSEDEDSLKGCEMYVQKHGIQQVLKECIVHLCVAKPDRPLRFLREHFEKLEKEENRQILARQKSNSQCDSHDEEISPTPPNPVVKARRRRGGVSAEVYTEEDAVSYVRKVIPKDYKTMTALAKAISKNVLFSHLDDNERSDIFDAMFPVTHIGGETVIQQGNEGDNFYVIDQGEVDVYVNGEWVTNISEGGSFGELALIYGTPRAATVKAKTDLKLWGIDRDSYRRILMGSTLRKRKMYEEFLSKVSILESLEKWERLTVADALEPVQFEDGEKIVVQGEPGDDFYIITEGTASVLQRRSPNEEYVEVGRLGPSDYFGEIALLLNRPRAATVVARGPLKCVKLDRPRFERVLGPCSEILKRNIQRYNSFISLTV
UniProt P12367: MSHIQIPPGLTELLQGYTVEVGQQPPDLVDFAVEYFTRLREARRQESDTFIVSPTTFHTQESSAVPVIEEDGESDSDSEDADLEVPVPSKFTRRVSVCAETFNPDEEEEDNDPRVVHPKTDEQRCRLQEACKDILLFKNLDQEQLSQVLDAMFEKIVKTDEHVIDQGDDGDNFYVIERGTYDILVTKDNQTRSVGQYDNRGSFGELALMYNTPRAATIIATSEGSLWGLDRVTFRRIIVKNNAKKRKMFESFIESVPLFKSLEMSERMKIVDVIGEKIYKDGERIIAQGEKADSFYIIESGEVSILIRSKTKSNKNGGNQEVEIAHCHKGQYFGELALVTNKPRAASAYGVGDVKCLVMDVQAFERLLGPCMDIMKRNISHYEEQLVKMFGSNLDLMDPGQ
UniProt P31324: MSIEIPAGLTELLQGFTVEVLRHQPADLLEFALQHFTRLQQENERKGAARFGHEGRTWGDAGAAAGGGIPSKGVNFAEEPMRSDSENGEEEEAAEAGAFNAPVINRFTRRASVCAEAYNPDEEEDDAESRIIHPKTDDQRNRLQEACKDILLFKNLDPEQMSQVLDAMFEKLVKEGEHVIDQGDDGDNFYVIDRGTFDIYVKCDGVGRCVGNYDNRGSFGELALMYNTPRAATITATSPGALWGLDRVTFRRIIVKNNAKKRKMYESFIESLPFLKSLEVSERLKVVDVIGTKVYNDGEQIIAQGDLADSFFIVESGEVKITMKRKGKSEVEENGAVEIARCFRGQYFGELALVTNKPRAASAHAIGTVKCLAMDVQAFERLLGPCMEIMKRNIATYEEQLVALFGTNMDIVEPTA

T2: MuRF3-Myc (His)6 (in C2C12) (UniProt Q9ERP3)
T2 sequence: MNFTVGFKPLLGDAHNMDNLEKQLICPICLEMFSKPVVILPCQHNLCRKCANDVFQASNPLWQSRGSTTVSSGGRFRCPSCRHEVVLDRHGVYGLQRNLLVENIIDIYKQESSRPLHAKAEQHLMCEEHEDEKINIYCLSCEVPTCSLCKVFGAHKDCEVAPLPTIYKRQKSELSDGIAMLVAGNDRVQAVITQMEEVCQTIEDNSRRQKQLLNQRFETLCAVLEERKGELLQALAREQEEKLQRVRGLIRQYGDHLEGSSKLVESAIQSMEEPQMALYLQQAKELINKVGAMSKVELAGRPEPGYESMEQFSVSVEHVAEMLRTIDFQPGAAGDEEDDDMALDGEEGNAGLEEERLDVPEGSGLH

B1: sorting nexin 5 (SNX5), endogenous in C2C12 (protein, UniProt Q9D8U8 1-404)
chain: T1 sequence
B2: SNX2 (protein, UniProt Q9CWK8 1-519)
chain: MAAEREPPPLGDVKPTDFEELEDGEDLFTSTVSTLESSPSSPEPASLPAEDISANSNGSKPVEVVLDDDREDLFAEATEEVSLDSPERELILSSEPSPAVTPVTPTTLIAPRIESKSISAPVIFDRSRDEIEEEANGDIFDIEIGVSDPEKVGDGMNAYMAYRVTTKTSLSMFSKSEFSVKRRFSDFLGLHSKLASKYLHVGYIVPPAPEKSIVGMTKVKVGKEDSSSTEFVEKRRAALERYLQRTVKHPTLLQDPDLRQFLESSELPRAVNTQALSGAGILRMVNKAADAVNKMTIKMNESDAWFEEKQQQFENLDQQLRKLHASVEALVCHRKELSANTAAFAKSAAMLGNSEDHTALSRALSQLAEVEEKIDQLHQEQAFADFYMFSELLSDYIRLIAAVKGVFDHRMKCWQKWEDAQITLLKKRETEAKMMVANKPDKIQQAKNEIREWEAKVQQGERDFEQISKTIRKEVGRFEKERVKDFKAVIIKYLESLVQTQQQLIKYWEAFLPEAKAIA

How the values were obtained:
[1] = target: T1, SNX5 on SNX5-coated vesicles immunoprecipitated from C2C12 myocytes; assay: affinity purification with mass spectrometry; SNX5-coated vesicles immunoprecipitated from C2C12 myocytes, then mass spectrometry (workflow in Figure S4A)
[2] = target: T2, MuRF3-Myc (His)6 (in C2C12); assay: affinity purification with mass spectrometry; SILAC; MuRF3-Myc (His)6 captured on Ni-Sepharose-6 Fast Flow from lysate of transfected Lys0 C2C12 cells (10 mM Tris-HCl pH 7.5, 150 mM NaCl), 3 h at 4°C; Lys4 cells with control vector; eluted with 120 mM EDTA

Molecule	binding [1]	binding [2]
RI-α (cAMP-dependent protein kinase type I alpha regulatory subunit) (from UniProt Q9DBC7 1-381)	binds	
RI-β (from UniProt P12849 1-381)	no binding	
RII-α (from UniProt P12367 1-401)	no binding	
RII-β (from UniProt P31324 1-416)	no binding	
B1		binds
B2	binds	

Source: paper PMC12515711
